We go through 2 substances from paper PMC10908869.

In this experiment the target is T1, MiD49 (mitochondrial dynamics protein of 49 KDa) (UniProt Q96C03).
T1 sequence: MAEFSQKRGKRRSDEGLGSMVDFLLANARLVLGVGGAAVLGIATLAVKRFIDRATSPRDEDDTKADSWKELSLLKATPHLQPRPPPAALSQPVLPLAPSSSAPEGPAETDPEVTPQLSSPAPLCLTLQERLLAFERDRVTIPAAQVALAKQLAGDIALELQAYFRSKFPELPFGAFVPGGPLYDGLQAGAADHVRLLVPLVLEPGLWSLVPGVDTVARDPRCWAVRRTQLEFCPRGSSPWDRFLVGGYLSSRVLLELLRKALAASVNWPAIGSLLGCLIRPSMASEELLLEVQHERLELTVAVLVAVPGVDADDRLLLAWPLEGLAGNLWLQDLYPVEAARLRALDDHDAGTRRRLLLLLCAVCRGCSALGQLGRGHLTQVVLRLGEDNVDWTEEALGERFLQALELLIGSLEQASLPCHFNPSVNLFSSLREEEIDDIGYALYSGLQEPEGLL
Briefly: co-IP; co-immunoprecipitation with MiD49 or MFF from cells with DRP1 or DRP1^K532R (mCherry-DRP1 constructs); details in Figures S7D, S7E.

Results are given in words; binding and its absence hold for the method and conditions named. Binding seen in cells or lysates may run through a third protein. Binding calls can cover weak binding; strength is not graded here.

For the substance mCherry-tagged DRP1^K532R, the binding entry is given as “binds”. In the case of “mCherry-tagged DRP1 (wild type, isoform 3)”, the binding result was “binds”.
